# The supplement of paper PMC3047530
# Where a name gives a salt, the structure may show the parent alone. The list shows a part of the results. Repeats are few or missing, and single values can be far off.
# System: Geomyces destructans
# Test: growth inhibition relative to DMSO control; higher = stronger growth inhibition
# Settings: 10 µM; 15 °C; incubation time 10 days
row,SMILES,growth inhibition
1,CCOC(=O)N1CCC(=C2c3ccc(Cl)cc3CCc3cccnc32)CC1,11.6%
2,"COc1cc(O)c2c(=O)cc(-c3ccc(OC)c(-c4c(O)cc(O)c5c(=O)cc(-c6ccc(O)cc6)oc45)c3)oc2c1 [GINKGETIN, K salt]",-19.2%
3,NC(=O)c1ccccc1O,-23.7%
4,COc1ccc(-c2coc3cc(O)ccc3c2=O)cc1,2.99%
5,Oc1c(Br)cc(Br)c2cccnc12,-10.9%
6,CCC(=O)O[C@H]1CC[C@H]2[C@@H]3CCc4cc(O)ccc4[C@H]3CC[C@]12C,-13.6%
7,CN(C)[C@@H]1C(O)=C(C(N)=O)C(=O)[C@@]2(O)C(O)=C3C(=O)c4c(O)cccc4[C@@](C)(O)[C@H]3C[C@@H]12,-18.3%
8,"CC(=O)O[C@H]1CC[C@]2(C)C(C[C@H](OC(C)=O)[C@]3(C)C4=CC(=O)OC(c5ccoc5)[C@@]4(C)CCC23)C1(C)C (stereo partly drawn) [3beta,7beta-DIACETOXYDEOXODEACETOXYDEOXYDIHYDROGEDUNIN]",-11.4%
9,COC(=O)[C@H](c1ccccc1Cl)N1CCc2sccc2C1,-10.8%
10,C[C@]12CCC(=O)C=C1CC[C@@H]1[C@@H]2C(=O)C[C@@]2(C)[C@H]1CC[C@]2(O)C(=O)CO,-4.29%
11,Nc1ccc(S(=O)(=O)NC(=O)c2ccccc2)cc1,-30.1%
12,CC(C)c1nc(N(C)S(C)(=O)=O)nc(-c2ccc(F)cc2)c1/C=C/[C@@H](O)C[C@@H](O)CC(=O)O,-8.18%
13,C=C(CC)C(=O)c1ccc(OCC(=O)O)c(Cl)c1Cl,29.7%
14,CCCCCC1C(=O)CCC1CC(=O)OC (stereo unspecified),5.6%
15,"COc1ccc2c(c1)[C@@]1(C)CCC(=O)C[C@H]1CC2 [5beta-12-METHOXY-4,4-BISNOR-8,11,13-PODOCARPATRIEN-3-ONE]",-7.59%
16,CCN(CC)CCCC(C)Nc1ccnc2cc(Cl)ccc12 (stereo unspecified),0.521%
17,O=c1cc(-c2ccc(O)cc2)oc2cc(O[C@@H]3O[C@H](CO)[C@@H](O)[C@H](O)[C@H]3O[C@@H]3OC[C@](O)(CO)[C@H]3O)cc(O)c12,-0.071%
18,c1ccc2c(c1)CCCC2C1=NCCN1 (stereo unspecified),-12.6%
19,"O=C(/C=C(\O)c1ccccc1)c1ccccc1O [2',beta-DIHYDROXYCHALCONE]",2.91%
20,C1N2CN3CN1CN(C2)C3,-7.83%
21,O=C(O)C1=C[C@@H](O)[C@@H](O)[C@H](O)C1,-2.63%
22,C=C(C)[C@@H]1CC[C@]2(C(=O)O)CC[C@]3(C)[C@H](CC[C@@H]4[C@@]5(C)CC[C@H](O)C(C)(C)[C@@H]5CC[C@]43C)[C@@H]12,-8.08%
23,Oc1ccc2c(c1)OC[C@]1(O)Cc3cc(O)c(O)cc3[C@H]21,9.31%

row,SMILES,growth inhibition
1,CCn1cc(C(=O)O)c(=O)c2cc(F)c(N3CCNCC3)nc21,0.305%
2,C=CCc1ccc(O)c(OC)c1,-9.7%
3,O=C1OC(c2ccc(O)cc2)(c2ccc(O)cc2)c2ccccc21,-0.89%
4,COc1ccc2c(C)cc(=O)oc2c1,-8.66%
5,COC(=O)C[C@H]1C(C)(C)[C@@H](O)[C@@H]2CC3=C4C=C(OC)O[C@@H](c5ccoc5)[C@]4(C)CCC3[C@@]1(C)C2=O (stereo partly drawn) [3-DEOXO-3beta-HYDROXYMEXICANOLIDE 16-ENOL ETHER],-3.64%
6,CC(=O)N[C@@H](Cc1c[nH]c2ccccc12)C(=O)O,-30.8%
7,COc1ccccc1-c1coc2cc(O)ccc2c1=O,-13.3%
8,CC(C(=O)O)c1cccc(Oc2ccccc2)c1 (stereo unspecified),-16.7%
9,O=C(O)CN(CCN(CC(=O)O)CC(=O)O)CC(=O)O.[Na+].[Na+].[Na+],-4.82%
10,C=CC(C)(O)CCC=C(C)CCC=C(C)C (mixture of isomers),-1.95%
11,CCCc1ncc(C[n+]2ccccc2C)c(N)n1,-40.3%
12,Nc1[nH]cnc2ncnc1-2,0.397%
13,CC(=O)[C@@]1(O)CC[C@H]2[C@@H]3C=C(Cl)C4=CC(=O)[C@@H]5C[C@@H]5[C@]4(C)[C@H]3CC[C@@]21C,4.68%
14,CC[N+](C)(C)c1cccc(O)c1,-10.9%
15,NCCc1c[nH]cn1,-0.831%
16,OC(Cn1cncn1)(Cn1cncn1)c1ccc(F)cc1F,-10.5%
17,CC(=O)OCC(=O)[C@@]1(O)CC[C@H]2[C@@H]3CCC4=CC(=O)CC[C@]4(C)[C@H]3[C@@H](O)C[C@@]21C,-0.831%
18,NS(=O)(=O)c1cc(C2(O)NC(=O)c3ccccc32)ccc1Cl (stereo unspecified),-1.52%
19,COc1ccc(-c2cc(=O)c3c(O)c(OC)c(OC)cc3o2)cc1O,16.1%
20,CCCCCCCCCCCCCCCC(=O)OC/C=C(C)/C=C/C=C(C)/C=C/C1=C(C)CCCC1(C)C,-13.3%
21,CC(=O)OCC(=O)[C@@]1(O)CC[C@H]2[C@@H]3CCC4=CC(=O)CC[C@]4(C)[C@@]3(F)[C@@H](O)C[C@@]21C,3.91%
22,O=C(O)CCCCCCCC(=O)O,-19.8%
23,CC(=O)O[C@@H]1C[C@H]2C(C)(C)C(=O)CC[C@]2(C)[C@H]2CC[C@@]3(C)[C@H](c4ccoc4)OC(=O)[C@H]4O[C@]43[C@@]21C,-16.6%

row,SMILES,growth inhibition
1,CC12CCC3C(CC3(C)C)C(C)(CCC1=O)O2 (stereo unspecified),-16.3%
2,O=C(O)CN1C(=O)c2cccc3cccc(c23)C1=O,-6.3%
3,CCCCN(CCCC)CCCOC(=O)c1ccc(N)cc1,-2.05%
4,Cc1ccc(C(=O)c2ccc(CC(=O)O)n2C)cc1,-16.2%
5,COC(=O)Nc1nc2cc(C(=O)c3cccs3)ccc2[nH]1,-6.42%
6,NNCCc1ccccc1,-19%
7,CC(Cc1cccc(C(F)(F)F)c1)NCCOC(=O)c1ccccc1 (stereo unspecified),-4.65%
8,CC(=O)S[C@@H]1CC2=CC(=O)CC[C@]2(C)[C@H]2CC[C@@]3(C)[C@@H](CC[C@@]34CCC(=O)O4)[C@H]12,-27.6%
9,C[C@H](CCC(=O)O)[C@H]1CC[C@H]2[C@@H]3CC[C@H]4C[C@H](O)CC[C@]4(C)[C@H]3C[C@H](O)[C@]12C,-4.15%
10,COc1ccc(-c2cc(=O)c3ccccc3o2)cc1,-2.21%
11,CC1(C)C(O)CC(O)C2(C)C1CC(=O)C1(C)C2CCC2(C)C(C(=O)O)OC(=O)C3OC321 (stereo unspecified),-6.98%
12,COc1ccc2c(=O)c(OC)c(-c3ccccc3)oc2c1,-2.26%
13,CN1CCN(CC/C=C2/c3ccccc3Sc3ccc(S(=O)(=O)N(C)C)cc32)CC1,-24%
14,CC[C@H](/C=C/[C@@H](C)[C@H]1CC[C@H]2[C@@H]3CC=C4C[C@@H](O)CC[C@]4(C)[C@H]3CC[C@]12C)C(C)C,-5.8%
15,C[C@@H]1C[C@H]2[C@@H]3C[C@H](F)C4=CC(=O)C=C[C@]4(C)[C@@]3(F)[C@@H](O)C[C@]2(C)[C@@]1(O)C(=O)CO,-31.4%
16,CC(=O)Oc1ccc2c(c1OC(C)=O)OCC1(O)Cc3c(cc(OC(C)=O)c(OC(C)=O)c3OC(C)=O)C21 (stereo unspecified),9.36%
17,COC(=O)c1cc(O)c(=O)c2c(O)c(O)ccc2c1,-2.38%
18,COc1c2occc2cc2ccc(=O)oc12,-3.47%
19,N=C(NCCCCCCNC(=N)NC(=N)Nc1ccc(Cl)cc1)NC(=N)Nc1ccc(Cl)cc1,-7.55%
20,CN1CCN(C2=Nc3ccccc3Oc3ccc(Cl)cc32)CC1,-8.52%
21,CCCCCc1c2c(cc(O)c1C(=O)O)OC(=O)c1c(cc(OC)cc1C(=O)CCCC)O2,-10.5%
22,COC1=C[C@@H](C)[C@@H]2C[C@H]3OC(=O)C[C@H]4C(C)=C(OC)C(=O)[C@H]([C@@]2(C)C1=O)[C@@]34C,0.931%
23,CCCCCCCCCCCCCCCCCCOCC(O)CO (stereo unspecified),-2.99%

# Reprinted from above, five compounds:
row,SMILES,growth inhibition
8,CC(=O)S[C@@H]1CC2=CC(=O)CC[C@]2(C)[C@H]2CC[C@@]3(C)[C@@H](CC[C@@]34CCC(=O)O4)[C@H]12,-27.6%
9,C[C@H](CCC(=O)O)[C@H]1CC[C@H]2[C@@H]3CC[C@H]4C[C@H](O)CC[C@]4(C)[C@H]3C[C@H](O)[C@]12C,-4.15%
10,COc1ccc(-c2cc(=O)c3ccccc3o2)cc1,-2.21%
11,CC1(C)C(O)CC(O)C2(C)C1CC(=O)C1(C)C2CCC2(C)C(C(=O)O)OC(=O)C3OC321 (stereo unspecified),-6.98%
12,COc1ccc2c(=O)c(OC)c(-c3ccccc3)oc2c1,-2.26%

# Additional structures.

row,SMILES,growth inhibition
1,CN(C)CCCN1c2ccccc2Sc2ccc(C(F)(F)F)cc21,-4.57%
2,CC1=C(CCC(=O)O)c2cc3nc(cc4[nH]c(cc5[nH]c(cc1n2)c(C)c5C(C)O)c(C)c4C(C)O)C(C)=C3CCC(=O)O (stereo unspecified),-15.1%
3,CC1=C(/C=C/C(C)=C/C=C/C(C)=C/C=C/C=C(C)/C=C/C=C(C)/C=C/[C@@]23O[C@]2(C)C[C@@H](O)CC3(C)C)C(C)(C)C[C@H](O)C1,-17.1%
4,COc1ccc([C@@H]2CC(=O)c3c(O)cc(O)cc3O2)cc1O,-23.4%
5,CCN(CC)CCOC(=O)C1(C2CCCCC2)CCCCC1,-3.41%
6,O=c1cc(-c2ccccc2)oc2c(O)c(O)ccc12,-24%
7,CC(N/C(=N\C#N)Nc1ccncc1)C(C)(C)C (stereo unspecified),-8.21%
8,Oc1cc(O)c2c(c1)O[C@H](c1ccc(O)c(O)c1)[C@@H](O)C2,-33.2%
9,O=C1c2c(O)cccc2Cc2cccc(O)c21,-35.5%
10,O=C1C[C@@H](c2ccccc2)Oc2cc(O)cc(O)c21,-5.75%
11,C[n+]1cccc(C(=O)[O-])c1,-1.28%
12,O=c1[nH]c(=O)n([C@H]2C[C@H](O)[C@@H](CO)O2)cc1F,-41.4%
13,Nc1ccc(C(=O)Oc2ccccc2)c(O)c1,-3.47%
14,NS(=O)(=O)c1cc2c(cc1Cl)NCNS2(=O)=O,-0.831%
15,CC(=O)O[C@H]1CC[C@]2(C)[C@H]3CC=C4[C@@H]5CC(C)(C)CC[C@]5(C)CC[C@@]4(C)[C@]3(C)CC[C@H]2C1(C)C [beta-AMYRIN ACETATE],-4.59%
16,COc1cc(/C=C/C(=O)O)ccc1O,2.67%
17,CN(C)CCC=C1c2ccccc2C=Cc2ccccc21,-11.5%
18,CCC(=O)O[C@H]1[C@H](O[C@@H]2[C@@H](C)[C@H](O[C@H]3C[C@@](C)(OC)[C@@H](O)[C@H](C)O3)[C@@H](C)C(=O)O[C@H](CC)[C@@](C)(O)[C@H](O)[C@@H](C)C(=O)[C@H](C)C[C@@]2(C)O)O[C@H](C)C[C@@H]1N(C)C,-5.58%
19,Nc1ncnc2c1ncn2[C@@H]1O[C@H](COP(=O)(O)O)[C@@H](O)[C@H]1O,0.983%
20,"CC1=CC(=O)CC(C)(C)C1(O)/C=C/C(C)=C\C(=O)O (mixture of isomers) [ABSCISIC ACID (cis,trans; +/-)]",-12.8%
21,C=C1CCC2C(CC2(C)C)C(=C)CC/C1=N/O (stereo unspecified),1.71%
22,C[C@@H]1C(=O)O[C@H]2C[C@@]34[C@H]5C[C@@H](C(C)(C)C)[C@]36[C@@H](OC(=O)[C@@H]6O)O[C@@]4(C(=O)O5)[C@]21O,0.397%
